Test results published in patent US20220119492A1.
Results are given in words; binding and its absence hold for the method and conditions named. Binding can be weak; no strength is given. One block for each binder: values may come before it.

How the values were obtained:
[1] = target: cynomolgus monkey IL-2Rβ subunit (cynomolgus monkey); assay: competition ELISA, peptide tracer
[2] = target: cynomolgus monkey Rγc subunit (cynomolgus monkey); assay: competition ELISA, peptide tracer

binding [1]: binds | binding [2]: binds
B1: IL-2Rβγc ligand having SEQ ID NO: 4171 (peptide)
peptide: GGGELLVDCFKVKVGELCDLFFGPAPAPAPAPAPAPAPAGVVCQDWEGVELCWQGG

binding [2]: binds
Binder: GGWYPCWMAQLGELCDLDGGGGSGGVVCQDWEGVELCWQGG [IL-2Rβγc ligand having SEQ ID NO: 1263]
